Assay results as given in PubChem BioAssay AID504834 (National Center for Advancing Translational Sciences (NCATS), 2011).
Where “and” joins values, the source holds several entries; their conditions need not be identical. Equal values may be shown once. Hit rate of the full screen: of about 320,000 compounds, about 22,000 (6.9%) were called active. The inconclusive results got no clear call from the source; some entries with a clear call stand among them for comparison. The call rests on the fitted dose curve; in most records, active means well fitted inhibition curve with a large enough effect; inconclusive means small, poorly fitted or top-dose-only effect, or another doubt; inactive means no such curve, though single readings can be large or run the other way. Potencies beside an inconclusive call are fits to weak or partial responses and may not hold up.

Test: Primary qHTS for delayed death inhibitors of the malarial parasite plastid, 96 hour incubation
Settings: P. falciparum luciferase reporter growth; series mostly up to 28.7 µM; activity change, negative = inhibition: at the top concentration
Outline: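 Erythrocytes infected with luciferase-expressing P. falciparum were dispensed at 2% hematocrit and 0.05% parasitemia (final), then incubated with compounds 96 hours at 37 C in 5% CO2. Luminescence after detection reagent addition reported growth.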
On the % scale 0 is the no-effect control and ±100 the full control effect; potency means the concentration at half of the fitted maximal effect.

SMILES | Potency | activity change, negative = inhibition
CC(=O)Nc1ccc(OCc2ccc(S(=O)(=O)Cc3ccccc3)cc2)cc1 | inconclusive: 18.5 µM [inhibitor, single point] | –
Cc1ccc(C)c(C(=O)CN2C(=O)CCC2=O)c1 | inconclusive: 18.5 µM [inhibitor, single point] | –
COc1cc(/C=C/c2ccc3cccc(O)c3n2)cc(Cl)c1OC | active: 3.7 µM | –
Cc1nn(CC(=O)N/N=C/c2cccs2)c(C)c1[N+](=O)[O-] | – | inactive: 37.5%
O=C(c1cc(S(=O)(=O)N2CCN(c3ccccc3)CC2)ccc1Cl)N1CCCC(C(F)(F)F)C1 (stereo not given) | inconclusive: 18.5 µM [inhibitor, single point] | –
Cc1cc(S(=O)(=O)N2CCC(N3CCCCC3)CC2)ccc1-n1cnnn1 | inconclusive: 16.5 µM [inhibitor, single point] | –
O=C(NCC(c1cccnc1)N1CCOCC1)Oc1ccccc1 (stereo not given) | – | inactive: -6.31%
Cc1onc(-c2ccccc2)c1C(=O)Oc1ccccc1 | – | inactive: 19.7%
Cc1ccc(NC(=O)c2cc3ccccc3cc2O)cc1 | inconclusive: 16.5 µM [inhibitor, partial curve, poor fit] | –
COCCNC(=O)COc1ccc(N(C)S(=O)(=O)c2ccc3ccccc3c2)cc1 | inconclusive: 7.38 µM [inhibitor, partial curve] | –
CC1CCCCC1NC(=O)C1CCCN1S(=O)(=O)c1cccc2nsnc12 (stereo not given) | inconclusive: 11.7 µM [inhibitor, partial curve, poor fit] | –
COc1ccc(CC(=O)OCC(=O)N2N=C(c3ccccc3)CC2c2ccc(OC)cc2)cc1 (stereo not given) | – | inactive: -62.8%
O=[N+]([O-])c1ccc(-c2csc3[n+]2CCS3)cc1 | active: 9.28 µM | –
CCN(Cc1ccccc1)S(=O)(=O)c1ccc(C(=O)N(CCCN(C)C)c2nc3cc(C)cc(C)c3s2)cc1 | inconclusive: 18.5 µM [inhibitor, single point] | –
COc1ccc(C2=NOC(Cn3nc(C(=O)NCc4cccc(C(F)(F)F)c4)cc3-c3ccccc3)C2)cc1 (stereo not given) | active: 4.65 µM | –
CCOC(=O)C(C)Sc1nnc(-c2ccccc2O)n1-c1ccc(C)cc1 (stereo not given) | inconclusive: 13.1 µM [inhibitor, single point] | –
C/C(=N\NC(=O)c1cc2ccccc2cc1O)c1ccc2c(c1)OCO2 | active: 5.22 µM | –
CCn1ncc(C2=NOC(C(=O)Nc3cccc(O)c3)C2)c1C (stereo not given) | inconclusive: 18.5 µM [inhibitor, single point] | –
Cc1cc(N/N=C/c2ccc(Cl)cc2Cl)nc(NCc2ccccc2)n1 | inconclusive: 0.329 µM [inhibitor, full curve, poor fit] | –
Cc1ccc(OCCC(=O)N(CCC(C)C)c2c(N)n(Cc3ccccc3)c(=O)[nH]c2=O)cc1 | inconclusive: 18.5 µM [inhibitor, single point] | –
COc1ccc(-c2nn(-c3ccccc3)cc2C2CC(c3cccs3)=NN2C(=O)CCC(=O)O)cc1 (stereo not given) | inconclusive: 9.28 µM [inhibitor, partial curve] | –
CCOc1ccc(NS(=O)(=O)c2ccc(C(=O)NCC(c3ccco3)N3CCCC3)cc2)cc1 (stereo not given) | inconclusive: 11.7 µM [inhibitor, single point] | –
Cc1ccc(/C(N)=N/OC(=O)c2cccc(Cn3cc(C(F)(F)F)ccc3=O)c2)cc1 | inconclusive: 18.5 µM [inhibitor, partial curve, poor fit] | –
COc1cc(-c2nnc(NC(=O)c3ccco3)o2)cc(OC)c1OC | inconclusive: 18.5 µM [inhibitor, single point] | –

SMILES | Potency | activity change, negative = inhibition
O=C(Nc1ccc2c(c1)nc1n2CCN(C2CCCCC2)C1)c1ccco1 | inconclusive: 9.28 µM [inhibitor, partial curve, poor fit] | –
O=C(/C=C/c1ccccc1[N+](=O)[O-])NCc1ccccc1Cl | – | inactive: -21.9%
COc1ccc2[nH]cc(CCNS(=O)(=O)c3ccc(C)cc3)c2c1 | – | inactive: 0.894%
COCc1c(CCl)cnc(C)c1O | active: 9.28 µM | –
CC(C)(C)c1ccc(/C=C2/SC(N3CCCC3)=NC2=O)cc1 | inconclusive: 4.15 µM [inhibitor, partial curve] | –
O=C(c1ccc(S(=O)(=O)N2CCOCC2)cc1)N(c1ccccc1)C1C=CS(=O)(=O)C1 (stereo not given) | inconclusive: 10.4 µM [inhibitor, single point] | –
O=C(NCCN1CCN(c2ccccc2)CC1)Nc1ccccc1Cl | inconclusive: 16.5 µM [inhibitor, single point] | –
O=C(Oc1ccc(Cl)c2ccccc12)N1CCCCC1 | inconclusive: 13.1 µM [inhibitor, single point] | –
CCCCCCCCNC(=O)c1cccnc1SCC(=O)Nc1ccc(OC)cc1OC | inconclusive: 0.0262 µM [inhibitor, full curve, poor fit] | –
CCC1(c2ccc(Cl)cc2)NC(=O)N(Cc2ccc(C(=O)OC)cc2)C1=O (stereo not given) | inconclusive: 1.65 µM [inhibitor, partial curve, poor fit] | –
CCOc1ccc(NS(=O)(=O)c2cc(C(=O)N3CCN(C(C)=O)CC3)ccc2Cl)cc1 | inconclusive: 1.04 µM [inhibitor, full curve] | –
CCN(CC)C1CCN(Cc2c(C(=O)N3CCCCCCC3)nc3ccc(Cl)cn23)C1 (stereo not given) | active: 11.7 µM | –
O=C(Nc1ccc(F)cc1F)Nc1csc2ccccc12 | inconclusive: 0.415 µM [inhibitor, full curve, poor fit] | –
COc1ccc(Nc2cc(C)c3ccccc3n2)cc1 | – | inactive: -17%
Cc1ccc(S(=O)(=O)N2CCCCC2)cc1NC(=O)c1cccs1 | inconclusive: 7.38 µM [inhibitor, partial curve, poor fit] | –
CCC(C)(C)NC(=O)COc1ccc(C(=O)c2ccccc2)cc1 | – | inactive: -11.6%
O=C(CN1c2cccc3cccc(c23)S1(=O)=O)NCc1ccc2c(c1)OCO2 | inconclusive: 16.5 µM [inhibitor, single point] | –
O=C(O)CCCN1C(=O)NC2NC(=O)NC21 (stereo not given) | inconclusive: 18.5 µM [inhibitor, single point] | –
Cc1ccc(C)c(N2CCN(C(=O)c3cccn4c(=O)c5sccc5nc34)CC2)c1 | – | inactive: -21.9%
COc1ccc(-c2nnc(SCC(=O)N3CCCCC3)o2)c(OC)c1 | inconclusive: 0.0037 µM [inhibitor, full curve, poor fit] | –
CCc1ccc([C@@H]2CC=C(C(=O)O)[C@H](c3cccc(Cl)c3)N2S(=O)(=O)c2ccc(C)cc2)cc1 | – | inactive: 56.8%
COc1cccc(OC)c1C(=O)N1CCOCC1 | active: 14.7 µM | –
CCO[C@H]1OC(C(=O)N2CCN(C)CC2)=C[C@@H](C2CC2)[C@@H]1CCCO | – | inactive: -2.17%
CN(C(=O)c1cc(COc2ccc(F)c(F)c2)on1)C1CCOC1 (stereo not given) | – | inactive: -18.5%

SMILES | Potency | activity change, negative = inhibition
COCC(=O)N1CCC(n2nccc2NC(=O)CCOc2ccccc2)CC1 | active: 11.7 µM | –
CCOc1ccccc1NC(=O)c1ccc(S(=O)(=O)N(C)c2ccccc2)cc1 | inconclusive: 18.5 µM [inhibitor, single point] | –
CCOc1ccc(NC(=S)N2C3CCCC2CC(NC(=O)C2CC2)C3)cc1 (stereo not given) | – | inactive: 31.1%
Cc1ccc(C(=O)NC2CCCCCCC2)c(Cl)c1 | – | inactive: -33.4%
Cc1cc(NC(=O)CCC(=O)N(c2cccnc2)C(C(=O)NC2CCCC2)c2ccccc2F)no1 (stereo not given) | inconclusive: 18.5 µM [inhibitor, single point] | –
Cc1nc2ccccc2n1CC(O)Cn1c(C(F)(F)F)nc2ccccc21 (stereo not given) | – | inactive: 13.9%
CC(=O)c1ccc(NC(=S)NC(C)c2ccc(Cl)cc2Cl)cc1 (stereo not given) | inconclusive: 2.62 µM [inhibitor, full curve, poor fit] | –
CCN1CCc2c(sc(NC(=O)C3CCCCC3)c2C(=O)OC)C1 | inconclusive: 0.262 µM [inhibitor, full curve, poor fit] | –
O=S(=O)(NCc1ccc(F)cc1)c1ccc(-c2cnc(C3CC3)o2)cc1 | inconclusive: 11.7 µM [inhibitor, partial curve, poor fit] | –
Cc1onc(-c2ccccc2Cl)c1C(=O)Nc1cccc2nsnc12 | – | inactive: 29.3%
CN1CCc2nc(SCc3ccc(C(C)(C)C)cc3)c(C#N)cc2C1 | inconclusive: 13.1 µM [inhibitor, single point] | –
COc1cccc2cc(-c3nc4ccccc4o3)c(=O)oc12 | inconclusive: 13.1 µM [inhibitor, single point] | –
Cc1nc2ncnn2c(C)c1CCC(=O)Nc1csc(N)n1 | inconclusive: 18.5 µM [inhibitor, single point] | –
COc1cccc(CNC(=O)[C@H](CC(C)C)NC(=O)N2CCn3c2nc2ccccc23)c1 | inconclusive: 18.5 µM [inhibitor, single point] | –
CCOC(=O)c1cnc(SCC(=O)Nc2sc(C)c(C)c2C#N)nc1N | – | inactive: 0.679%
COc1cc(OC)c2ccc(=O)oc2c1C(CCN1CCN(c2ccccc2)CC1)c1ccc(N(C)C)cc1 (stereo not given) | active: 10.4 µM | –
O=C(O)CC(C(=O)O)c1cn(Cc2ccccc2)c2ccccc12 (stereo not given) | inconclusive: 10.4 µM [inhibitor, partial curve, poor fit] | –
Cn1c(O)c(/C=C2\C=Nc3ccccc32)sc1=Nc1ccc(C(=O)O)cc1 | – | inactive: 7.67%
N#C/C(=C\c1ccccc1C(F)(F)F)C(=O)Nc1ccccc1 | – | inactive: 25.4%
O=c1c2c([nH]c3ccccc13)CCCCCC2 | – | inactive: 2.89%
O=C(Nc1cccc2nsnc12)c1cccs1 | inactive and inconclusive: 9.28 µM [inhibitor, partial curve, poor fit] | –
Cc1ccccc1CN1C(=O)/C(=C\c2ccc(C(=O)NCCN3CCOCC3)cc2)Sc2ccccc21 | inconclusive: 10.4 µM [inhibitor, partial curve] | –

Entries of single compounds from above. Order of values: Potency | activity change, negative = inhibition
Cn1c(O)c(/C=C2\C=Nc3ccccc32)sc1=Nc1ccc(C(=O)O)cc1 is listed as – | inactive: 7.67%
COc1cc(OC)c2ccc(=O)oc2c1C(CCN1CCN(c2ccccc2)CC1)c1ccc(N(C)C)cc1 (stereo not given) is listed as active: 10.4 µM | –
CN1CCc2nc(SCc3ccc(C(C)(C)C)cc3)c(C#N)cc2C1 is listed as inconclusive: 13.1 µM [inhibitor, single point] | –
O=S(=O)(NCc1ccc(F)cc1)c1ccc(-c2cnc(C3CC3)o2)cc1 is listed as inconclusive: 11.7 µM [inhibitor, partial curve, poor fit] | –
